According to patent US11267814B2, “Compounds for bone growth” (OsteoQC Inc., priority 2013, dated 2022):
Some entries share one result that the patent states for a list of compounds.

Biological target: T1, sclerostin (Homo sapiens, UniProt Q9BQB4)
T1 construct: host or cells: human embryonic cells (reporter cells)
T1 sequence (Q9BQB4 24-213): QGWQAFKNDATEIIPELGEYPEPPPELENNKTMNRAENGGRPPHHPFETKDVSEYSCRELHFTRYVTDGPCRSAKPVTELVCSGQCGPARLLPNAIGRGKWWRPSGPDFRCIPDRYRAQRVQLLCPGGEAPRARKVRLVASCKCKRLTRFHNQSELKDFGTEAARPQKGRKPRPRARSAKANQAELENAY
Assay: Modulation of sclerostin/Wnt activity (sclerostin inhibition assay): restoring Wnt3a signaling in the presence of sclerostin
Type: cell-based
Conditions: human embryonic cells; result in words

COc1ccc2c(c1)[nH]c1c(C(F)(F)F)nccc12 [Example 22, 7-methoxy-1-(trifluoromethyl)-9H-pyrido[3,4-b]indole]
effect on Wnt3a signaling: restored Wnt3a signaling in the cell

CC(Cn1c2ccccc2c2cccnc21)N(C)C (centres unmarked) [Example 1, N,N-dimethyl-1-(9H-pyrido[2,3-b]indol-9-yl)propan-2-amine]
effect on Wnt3a signaling: restored Wnt3a signaling in the cell
